Record: PubChem BioAssay AID504784 (Drosophila RNAi Screening Center, 2011)

- Screen: 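Genome-wide knock-down for genes giving too much or too little stored lipid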 (primary screen)
- System: Drosophila Kc167 embryonic cells
- Knock-down reagent: long dsRNA against Drosophila genes, about 250 ng dsRNA per well
- Duration: 4 days
- Treatment: cells fed 400 µM oleic acid bound to BSA
- Read-out: 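Cells imaged and segmented; ratio of lipid droplet area to nuclear area, log-transformed, then normalised as a B-score over the screen; higher means more stored lipid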
- Scale: droplet/nuclear area B-score: higher = more stored lipid (overstorage)
In all, the deposit lists about 17,000 reagents; below is an unselected part of those with a known target gene and a result. 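Each column is one replicate's B-score; the combined score over replicates was not deposited, so single values may mislead.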 The numbers tell different reagents against one gene apart. A plus sign joins genes that one reagent is predicted to hit. Not all columns of the deposit are shown. No sequences are given here.

The first 3 entries, ahead of the listing:
DNAlig1
- droplet/nuclear area B-score, replicate 1: 3.43

CG33468
- droplet/nuclear area B-score, replicate 1: 0.194

CG6839
- droplet/nuclear area B-score, replicate 1: 0.791

The list itself, repeating the preview:
DNAlig1
- droplet/nuclear area B-score, replicate 1: 3.43

CG33468
- droplet/nuclear area B-score, replicate 1: 0.194

CG6839
- droplet/nuclear area B-score, replicate 1: 0.791

Unr
- droplet/nuclear area B-score, replicate 1: -1.43

Wdr24
- droplet/nuclear area B-score, replicate 1: 1.19

CG18540
- droplet/nuclear area B-score, replicate 1: -2.76

Lcp65Ab2 + Lcp65Ab1 #1
- droplet/nuclear area B-score, replicate 1: 0.00864

Lcp65Ab2 + Lcp65Ab1 #2
- droplet/nuclear area B-score, replicate 1: 0.659

CG14182
- droplet/nuclear area B-score, replicate 1: -0.946

Adck1
- droplet/nuclear area B-score, replicate 1: 1.83

Semp1
- droplet/nuclear area B-score, replicate 1: 0.0939

Alp10
- droplet/nuclear area B-score, replicate 1: -0.585

CG11898
- droplet/nuclear area B-score, replicate 1: -3.85

elB #1
- droplet/nuclear area B-score, replicate 1: -0.658

elB #2
- droplet/nuclear area B-score, replicate 1: 0.116

Gr39b
- droplet/nuclear area B-score, replicate 1: 0.231

dsx #1
- droplet/nuclear area B-score, replicate 1: 3.55

dsx #2
- droplet/nuclear area B-score, replicate 1: 2.31

dsx #3
- droplet/nuclear area B-score, replicate 1: -1.57

Or98b #1
- droplet/nuclear area B-score, replicate 1: 1.27

Or98b #2
- droplet/nuclear area B-score, replicate 1: 1.22

MrgBP
- droplet/nuclear area B-score, replicate 1: 2.79

CG17147
- droplet/nuclear area B-score, replicate 1: -1.06

CG17047
- droplet/nuclear area B-score, replicate 1: -1.11

TfIIA-L
- droplet/nuclear area B-score, replicate 1: -0.18

Clc
- droplet/nuclear area B-score, replicate 1: -1.81

app #1
- droplet/nuclear area B-score, replicate 1: 0.982

app #2
- droplet/nuclear area B-score, replicate 1: -0.702

app #3
- droplet/nuclear area B-score, replicate 1: -1.12
